This assay concerns the target T1, ATF3 (activating transcription factor 3) protein (UniProt P18847).
T1 sequence (looked up): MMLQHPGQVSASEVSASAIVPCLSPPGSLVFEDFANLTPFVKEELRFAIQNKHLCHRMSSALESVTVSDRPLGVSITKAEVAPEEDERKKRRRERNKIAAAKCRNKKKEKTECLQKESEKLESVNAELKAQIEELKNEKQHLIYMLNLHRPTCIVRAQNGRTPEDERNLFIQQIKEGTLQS
In words: avidin-biotin complex binding assay; ATF3 coated on plate, biotinylated peptide 10-100 uM, ExtrAvidin-peroxidase, absorbance 405 nm.

No constants are given. Whether binding was seen depends on the method and setting. Some results given as binding are weak or reduced against the parent protein; the word gives no strength.

In the case of MLDTNIQSRPNL (biotin-labeled with EZ-link sulfo-NHS-biotin (site not stated)) [ABP2 peptide (SEQ ID NO: 2), biotin-labeled], the binding entry is on record as “binds”. Regarding AESPLTNRGWNP (biotin-labeled with EZ-link sulfo-NHS-biotin (site not stated)) [ABP1 peptide (SEQ ID NO: 1), biotin-labeled], the binding entry was “binds”.

Regarding VLNIPEHFTAQN (biotin-labeled with EZ-link sulfo-NHS-biotin (site not stated)) [ABP4 peptide (SEQ ID NO: 4), biotin-labeled], the binding entry was “binds”. Regarding TLGLRPVPVATT (biotin-labeled with EZ-link sulfo-NHS-biotin (site not stated)) [ABP3 peptide (SEQ ID NO: 3), biotin-labeled], the binding entry was “binds”.

For the origin of these results see patent EP3845551A1.
